# Test results: the supplement of paper PMC3334620
# The full ranking holds about 33,000 sequences; the median of “E-score (-0.5 to 0.5)” is about -8e-05, and the highest 2% start at about 0.23. The list shows a part of the results.
# Biological target: T1, Nrg2 (UniProt P38082)
# T1 sequence: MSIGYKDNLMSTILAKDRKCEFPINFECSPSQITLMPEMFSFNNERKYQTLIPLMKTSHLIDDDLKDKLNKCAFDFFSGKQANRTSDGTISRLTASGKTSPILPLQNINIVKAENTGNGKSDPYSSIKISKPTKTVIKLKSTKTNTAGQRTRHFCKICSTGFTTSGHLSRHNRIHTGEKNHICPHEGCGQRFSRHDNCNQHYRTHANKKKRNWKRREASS
# Assay: PBM E-score (8-mer binding enrichment) (E-score (-0.5 to 0.5)); higher = stronger / more preferred TF binding
# Conditions: protein concentration: 100 nM; construct: GST-full length
# Method: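 Universal 'all 10-mer' protein binding microarrays (Agilent AMADID 015681) probed with GST-tagged S. cerevisiae TFs (full-length or DBD) made by in vitro transcription/translation (PURExpress), about 100-200 nM. Bound TF was detected with fluorescent anti-GST. Each ungapped 8-mer (which stands for itself and its reverse complement) is scored by the PBM enrichment score (E-score), a modified Wilcoxon-Mann-Whitney statistic from -0.5 to +0.5, computed with the Universal PBM Analysis Suite. Scale: above 0.35 generally sequence-specific binding.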
row,Sequence,PBM E-score
1,ACCAGCTC,-0.0619
2,CGTCAACG,-0.17
3,TAAGTTAA,0.123
4,ACATCGCG,-0.0658
5,CCTGCCGC,-0.148
6,TCGGTAAA,0.0351
7,GATTGTGC,0.103
8,AGATACTC,0.1
9,ACTGACGA,0.0428
10,AGTCTCCG,-0.115
11,GAAAAATA,0.13
12,AAGGACAT,-0.0854
13,GCTGCCAC,-0.138
14,GAGTACTC,0.23
15,GCAGTGTA,0.0189
16,TGGTGGAA,-0.0824
17,AGGAGCCA,-0.101
18,AACACTCA,0.208
19,ACAGGCCG,-0.0282
20,CCTTAAAG,0.108
21,CCGTGGCG,-0.103
22,CATGGCGG,0.0147

row,Sequence,PBM E-score
1,ATACAGAA,0.185
2,CATTTAGG,-0.299
3,AGCTGGTG,0.0637
4,GCTTCGGA,-0.0285
5,CTGCAGAA,0.0924
6,CCGTTCGA,0.0944
7,CGCGGCTC,0.119
8,CAAGTTCA,0.114
9,GATTATGA,0.133
10,CAGATGCA,-0.158
11,AACCACGA,0.0948
12,CATAACCC,0.0485
13,AGAAACAA,0.258
14,GAATTGTA,-0.0393
15,CTTGCAAA,0.232
16,CCCGCCGA,0.0275
17,ACATTAAG,0.0681
18,ACCGGTTA,-0.0536
19,CCCAAGGC,-0.123
20,GGAGGCTA,-0.271
21,GTTGGGTA,-0.0214
22,ATAATCGC,-0.0299

row,Sequence,PBM E-score
1,CCAAAAAG,0.0203
2,GTGTTATA,0.063
3,ACCACGGG,-0.117
4,AATTTTAC,0.0932
5,GCCCCCCC,-0.352
6,AATTAGCT,-0.00883
7,AGCGCGAA,0.189
8,CTGCGGAA,-0.0361
9,GATATTCA,-0.00802
10,AGGGTTCG,0.187
11,TCCTTGAA,-0.139
12,CCAGGTCC,-0.205
13,ACGGATAT,0.121
14,TATTGACA,-0.0889
15,GTTATCTA,-0.105
16,CGACATCG,-0.162
17,ACAGCCCT,-0.142
18,CTCTCACC,0.0549
19,GACCAGCA,0.15
20,AACACCGT,-0.11
21,CCCTCTTA,0.0318
22,CAACGTAC,-0.0377

row,Sequence,PBM E-score
1,AAGGCTTG,-0.0246
2,ACTAAATA,0.125
3,CCAGCGGA,-0.35
4,CGATAGCG,0.124
5,ACGCATGC,0.186
6,GTCGCGGA,-0.0972
7,CAAGCATA,0.105
8,AGGGGTAT,0.0935
9,CTATAATA,0.0915
10,CACATCCA,0.125
11,GCATAGGC,-0.158
12,AACATAGC,0.0319
13,ACGCCGTA,-0.0872
14,ACAACACT,0.178
15,CCAAATAC,-0.0913
16,CTTGCAGA,-0.0148
17,CTCGGAAA,-0.0457
18,GGATGTTA,-0.0217
19,AAGCGAAC,0.0401
20,ATACGACC,-0.0857

# 3 records picked at random from the list so far:
row,Sequence,PBM E-score
5,ACGCATGC,0.186
15,CCAAATAC,-0.0913
19,AAGCGAAC,0.0401
